Data from article doi:10.1101/2023.03.27.533164.
Results are given in words; binding and its absence hold for the method and conditions named. In cells and extracts the contact can be indirect. A yes stands for co-enrichment or nearness to the bait. Other partners may have been found.

By UniProt entry, the sequences of proteins in these tests, tags left out.
UniProt P05549: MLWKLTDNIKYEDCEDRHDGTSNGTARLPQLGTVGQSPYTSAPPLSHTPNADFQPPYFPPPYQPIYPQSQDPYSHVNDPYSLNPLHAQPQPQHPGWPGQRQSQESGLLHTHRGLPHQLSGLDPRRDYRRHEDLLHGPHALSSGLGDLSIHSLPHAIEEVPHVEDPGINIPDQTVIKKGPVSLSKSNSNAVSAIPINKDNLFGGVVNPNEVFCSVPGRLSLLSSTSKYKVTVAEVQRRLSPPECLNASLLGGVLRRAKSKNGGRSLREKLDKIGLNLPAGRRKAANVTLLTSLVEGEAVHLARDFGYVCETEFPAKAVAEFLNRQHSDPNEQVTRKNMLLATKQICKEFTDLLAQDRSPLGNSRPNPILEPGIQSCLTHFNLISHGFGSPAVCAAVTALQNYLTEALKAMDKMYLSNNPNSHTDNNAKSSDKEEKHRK
UniProt O60264: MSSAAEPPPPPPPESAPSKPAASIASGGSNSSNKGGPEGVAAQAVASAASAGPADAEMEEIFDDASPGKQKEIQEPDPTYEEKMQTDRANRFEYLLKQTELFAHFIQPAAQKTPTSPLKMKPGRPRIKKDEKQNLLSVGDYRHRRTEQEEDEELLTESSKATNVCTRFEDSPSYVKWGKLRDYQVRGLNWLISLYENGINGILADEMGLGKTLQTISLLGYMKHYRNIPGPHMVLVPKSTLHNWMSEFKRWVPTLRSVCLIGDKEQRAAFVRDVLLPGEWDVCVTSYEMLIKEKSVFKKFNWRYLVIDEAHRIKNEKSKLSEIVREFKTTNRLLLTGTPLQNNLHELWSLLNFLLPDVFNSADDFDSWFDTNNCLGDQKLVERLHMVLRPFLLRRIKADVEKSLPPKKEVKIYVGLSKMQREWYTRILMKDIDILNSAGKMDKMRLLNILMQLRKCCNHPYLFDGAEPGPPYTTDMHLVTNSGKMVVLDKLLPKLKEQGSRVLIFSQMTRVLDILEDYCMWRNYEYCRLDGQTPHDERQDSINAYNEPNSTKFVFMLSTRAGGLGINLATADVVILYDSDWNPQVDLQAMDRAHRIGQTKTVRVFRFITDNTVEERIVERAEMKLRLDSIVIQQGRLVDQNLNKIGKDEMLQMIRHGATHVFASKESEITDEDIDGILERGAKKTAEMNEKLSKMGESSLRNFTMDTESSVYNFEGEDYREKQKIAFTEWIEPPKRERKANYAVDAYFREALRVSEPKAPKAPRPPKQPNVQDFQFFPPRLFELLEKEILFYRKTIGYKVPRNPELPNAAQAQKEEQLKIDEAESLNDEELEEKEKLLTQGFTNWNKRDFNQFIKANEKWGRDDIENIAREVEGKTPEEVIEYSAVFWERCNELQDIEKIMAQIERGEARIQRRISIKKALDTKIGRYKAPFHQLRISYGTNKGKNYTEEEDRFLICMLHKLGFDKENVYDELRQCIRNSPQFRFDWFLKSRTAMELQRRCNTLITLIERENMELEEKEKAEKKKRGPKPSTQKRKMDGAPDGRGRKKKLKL
UniProt Q99873: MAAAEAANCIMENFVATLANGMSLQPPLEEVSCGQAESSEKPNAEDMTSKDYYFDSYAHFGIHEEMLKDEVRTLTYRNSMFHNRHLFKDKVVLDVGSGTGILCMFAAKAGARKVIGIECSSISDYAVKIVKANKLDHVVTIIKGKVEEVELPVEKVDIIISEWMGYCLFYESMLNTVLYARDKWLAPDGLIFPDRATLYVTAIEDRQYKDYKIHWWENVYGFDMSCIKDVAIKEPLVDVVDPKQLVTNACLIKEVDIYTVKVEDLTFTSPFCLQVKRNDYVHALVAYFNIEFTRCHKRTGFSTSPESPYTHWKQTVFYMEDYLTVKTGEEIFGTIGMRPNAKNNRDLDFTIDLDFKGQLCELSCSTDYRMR

Target: T1, Basonuclin 1 (human (endogenous in N/TERT-1)) (UniProt Q01954)
T1 sequence: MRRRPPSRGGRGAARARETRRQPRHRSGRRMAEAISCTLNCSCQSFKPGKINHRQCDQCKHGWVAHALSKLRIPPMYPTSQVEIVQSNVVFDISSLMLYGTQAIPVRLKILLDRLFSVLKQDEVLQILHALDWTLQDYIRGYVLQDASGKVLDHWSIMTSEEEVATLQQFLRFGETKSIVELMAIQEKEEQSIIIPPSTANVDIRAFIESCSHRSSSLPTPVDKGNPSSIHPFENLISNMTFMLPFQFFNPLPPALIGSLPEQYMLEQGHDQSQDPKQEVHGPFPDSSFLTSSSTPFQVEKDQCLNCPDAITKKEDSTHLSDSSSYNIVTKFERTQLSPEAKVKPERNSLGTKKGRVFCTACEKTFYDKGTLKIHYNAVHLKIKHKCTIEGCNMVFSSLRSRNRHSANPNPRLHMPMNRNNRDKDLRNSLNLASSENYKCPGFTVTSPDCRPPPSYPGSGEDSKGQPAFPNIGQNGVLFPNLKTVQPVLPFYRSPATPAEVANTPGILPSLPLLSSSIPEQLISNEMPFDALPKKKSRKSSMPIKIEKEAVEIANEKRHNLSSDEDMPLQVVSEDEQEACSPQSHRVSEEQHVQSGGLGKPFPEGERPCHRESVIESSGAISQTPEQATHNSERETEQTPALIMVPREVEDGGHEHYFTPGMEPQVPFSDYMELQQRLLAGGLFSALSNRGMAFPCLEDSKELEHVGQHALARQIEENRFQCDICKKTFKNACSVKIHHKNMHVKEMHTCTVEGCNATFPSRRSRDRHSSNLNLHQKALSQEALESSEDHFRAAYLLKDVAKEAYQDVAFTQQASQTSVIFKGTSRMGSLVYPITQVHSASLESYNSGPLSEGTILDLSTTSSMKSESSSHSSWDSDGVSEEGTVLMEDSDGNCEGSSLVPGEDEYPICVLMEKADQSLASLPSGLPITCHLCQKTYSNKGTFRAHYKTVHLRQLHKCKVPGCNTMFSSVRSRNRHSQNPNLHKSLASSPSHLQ
Assay: affinity purification with mass spectrometry

Row | Molecule | binding
1 | TFAP2A (from UniProt P05549 1-437) | binds
2 | SMARCA5 (from UniProt O60264 1-1052) | binds
3 | PRMT1 (from UniProt Q99873 1-371) (enzyme) | binds
4 | JUNB (protein, UniProt P17275 1-347) MCTKMEQPFYHDDSYTATGYGRAPGGLSLHDYKLLKPSLAVNLADPYRSLKAPGARGPGPEGGGGGSYFSGQGSDTGASLKLASSELERLIVPNSNGVITTTPTPPGQYFYPRGGGSGGGAGGAGGGVTEEQEGFADGFVKALDDLHKMNHVTPPNVSLGATGGPPAGPGGVYAGPEPPPVYTNLSSYSPASASSGGAGAAVGTGSSYPTTTISYLPHAPPFAGGHPAQLGLGRGASTFKEEPQTVPEARSRDATPPVSPINMEDQERIKVERKRLRNRLAATKCRKRKLERIARLEDKVKTLKAENAGLSSTAGLLREQVAQLKQKVMTHVSNGCQLLLGVKGHAF | binds
5 | TP63 (protein, UniProt Q9H3D4 1-680) MNFETSRCATLQYCPDPYIQRFVETPAHFSWKESYYRSTMSQSTQTNEFLSPEVFQHIWDFLEQPICSVQPIDLNFVDEPSEDGATNKIEISMDCIRMQDSDLSDPMWPQYTNLGLLNSMDQQIQNGSSSTSPYNTDHAQNSVTAPSPYAQPSSTFDALSPSPAIPSNTDYPGPHSFDVSFQQSSTAKSATWTYSTELKKLYCQIAKTCPIQIKVMTPPPQGAVIRAMPVYKKAEHVTEVVKRCPNHELSREFNEGQIAPPSHLIRVEGNSHAQYVEDPITGRQSVLVPYEPPQVGTEFTTVLYNFMCNSSCVGGMNRRPILIIVTLETRDGQVLGRRCFEARICACPGRDRKADEDSIRKQQVSDSTKNGDGTKRPFRQNTHGIQMTSIKKRRSPDDELLYLPVRGRETYEMLLKIKESLELMQYLPQHTIETYRQQQQQQHQHLLQKQTSIQSPSSYGNSSPPLNKMNSMNKLPSVSQLINPQQRNALTPTTIPDGMGANIPMMGTHMPMAGDMNGLSPTQALPPPLSMPSTSHCTPPPPYPTDCSIVSFLARLGCSSCLDYFTTQGLTTIYQIEHYSMDDLASLKIPEQFRHAIWKGILDHRQLHEFSSPSHLLRTPSSASTVSVGSSETRGERVIDAVRFTLRQTISFPPRDEWNDFNFDMDARRNKQQRIKEEGE | binds
